Values quoted from earlier work in patent US20070269503A1, “Combinations of HMG CoA reductase inhibitors and negatively charged phospholipids and uses thereof” (priority 2006, published 2007).

Conditions: 10-20 mg/day in 2 kg rabbits; cited from earlier work

CC(C)c1c(C(=O)Nc2ccccc2)c(-c2ccccc2)c(-c2ccc(F)cc2)n1CC[C@@H](O)C[C@@H](O)CC(=O)O [atorvastatin]
reduction of plasma cholesterol levels: approximately 60%
